## Screening data

Data taken from PubChem BioAssay AID1053133, deposited by Broad Institute (2014).

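Plate-reader measure of the Venus reporter marking one vaccinia stage in infected cells (the cell line is not named here); read time unknown. The test concentration is not given here. Percent change in Venus reporter signal; lower (more negative) values mean stronger inhibition of that viral stage.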

Values are in %. How 0% and 100% were set is not given here. Common to all entries: measured here: Venus reporter, other viral stage. Part of the compounds only, not a random draw; the main read-out is not listed here.

compound	activity change (Venus) (%)
C[C@H]1CN([C@@H](C)CO)C(=O)c2cccc(NC(=O)Nc3ccccc3)c2O[C@H]1CN(C)Cc1ccc(C(F)(F)F)cc1	-30.36
Cc1ccc(S(=O)(=O)N(C)C[C@@H]2Oc3c(NC(=O)Nc4ccc(F)cc4)cccc3C(=O)N([C@H](C)CO)C[C@@H]2C)cc1	-58.93
C[C@@H]1CN([C@@H](C)CO)C(=O)Cc2cc(NC(=O)CCN3CCOCC3)ccc2O[C@@H]1CN(C)Cc1ccc(-c2ccccc2)cc1	-48.92
COc1cccc(-c2ccc(C3[C@@H]4CN(S(=O)(=O)c5ccccc5)C[C@H]3N4)cc2)c1 (some centres not stated)	-50.82
CCCC#Cc1ccc2c(c1)O[C@H](CN(C)C(=O)C1CCC1)[C@H](C)CN([C@@H](C)CO)S2(=O)=O	-35.37
C[C@@H]1CCCCO[C@@H](CN(C)C(=O)C2CCCCC2)[C@H](C)CN([C@H](C)CO)C(=O)c2cc(NC(=O)NC3CCCCC3)ccc2O1	-44.03
COc1ccc2c3c(n(C)c2c1)[C@H](CO)N(Cc1ccccc1F)CC31CCN(CC2CC2)CC1	-34.78
O=S(=O)(c1ccccc1F)N1CC[C@@H]2[C@@H](CO)Nc3ccc(-c4ccccc4)cc3[C@@H]21	-37.64
C[C@@H]1CN([C@H](C)CO)C(=O)Cc2cc(N(C)C)ccc2O[C@@H]1CN(C)Cc1ccc(-c2ccccc2)cc1	-43.3
C[C@@H]1CN([C@@H](C)CO)S(=O)(=O)c2ccc(C#Cc3ccccc3F)cc2O[C@@H]1CN(C)CC1CCOCC1	-48.86
C[C@@H]1CN([C@H](C)CO)C(=O)c2cc(NC(=O)Cc3ccccc3)ccc2O[C@@H](C)CCCCO[C@@H]1CN(C)CC1CCCCC1	-56.42
C[C@H]1CN([C@@H](C)CO)C(=O)Cc2cc(NC(=O)Nc3cccc4ccccc34)ccc2O[C@H]1CN(C)Cc1ccccc1	-34.72
C[C@@H]1CN([C@@H](C)CO)C(=O)c2cccc(NC(=O)Nc3ccc(C(F)(F)F)cc3)c2O[C@@H]1CN(C)Cc1ccc(Cl)c(Cl)c1	-42.65
Cc1ccccc1S(=O)(=O)N1CCCCN2[C@H](C1)[C@@H](c1ccc(-c3cccc(F)c3)cc1)[C@@H]2CO	-29.07
Cc1ccc(-c2cnc3c(c2)C(=O)N([C@H](C)CO)C[C@@H](C)[C@H](CN(C)CC2CCCCC2)O3)cc1	-49.23
COc1ccc(S(=O)(=O)Nc2ccc3c(c2)CC(=O)N([C@H](C)CO)C[C@H](C)[C@H](CN(C)CC2CCCCC2)O3)cc1	-25.44
C[C@@H](NC(=O)C[C@@H]1CC[C@H]2[C@@H](COC[C@@H](O)CN2C(=O)Nc2ccccc2)O1)c1ccccc1	-39.24
CC(C)CC#Cc1ccc2c(c1)O[C@@H](CN(C)Cc1ccncc1)[C@@H](C)CN([C@@H](C)CO)S2(=O)=O	-25.49
C[C@H]1CCCCO[C@H](CN(C)Cc2ccc3c(c2)OCO3)[C@@H](C)CN([C@@H](C)CO)C(=O)c2cc(NS(=O)(=O)c3ccc(F)cc3)ccc2O1	-51.77
C[C@H]1CN([C@@H](C)CO)C(=O)c2cc(C#CC3CCCCC3)cnc2O[C@@H]1CN(C)C(=O)Nc1ccccc1	-30.47
COC(=O)[C@]1(Cc2ccccc2N=[N+]=[N-])N=C(c2ccc(OCCCO)cc2)O[C@@H]1c1ccccc1	-64.32
C/C=C/c1ccc2c(c1)O[C@H](CN(C)S(=O)(=O)c1ccccc1OC)[C@@H](C)CN([C@H](C)CO)S2(=O)=O	-27.86
COc1ccc(NC(=O)N(C)C[C@H]2OCc3ccccc3-c3c(n(C)c4ccccc34)C(=O)N([C@H](C)CO)C[C@@H]2C)c(OC)c1	-48.63
C[C@@H]1CCCCO[C@H](CN(C)C(=O)c2ccccc2)[C@H](C)CN([C@@H](C)CO)C(=O)c2cc(NC(=O)Nc3ccc(C(F)(F)F)cc3)ccc2O1	-19.6
C[C@H](CO)N1C[C@H](C)[C@H](CN(C)CC2CCCCC2)Oc2ccc(NC(=O)Cc3cn(C)c4ccccc34)cc2C1=O	-31.04
C[C@H]1CN([C@@H](C)CO)S(=O)(=O)c2ccc(-c3ccncc3)cc2O[C@@H]1CN(C)Cc1ccccc1	-53.83
C[C@@H]1CCCCO[C@@H](CN(C)CC2CCCCC2)[C@@H](C)CN([C@@H](C)CO)C(=O)c2cc(NS(=O)(=O)c3ccccc3)ccc2O1	-60.5
C[C@@H]1CN([C@H](C)CO)C(=O)c2cc(/C=C/c3ccccc3)cnc2O[C@H]1CN(C)C(=O)C1CCCCC1	-26.65
C[C@H]1CN([C@@H](C)CO)S(=O)(=O)c2ccc(C3=CCCCC3)cc2O[C@H]1CN(C)Cc1ccccc1F	-77.67
C[C@H]1CCCCO[C@H](CN(C)Cc2ccc3c(c2)OCO3)[C@@H](C)CN([C@@H](C)CO)C(=O)c2cc(NS(=O)(=O)c3ccc(Cl)cc3)ccc2O1	-59.09
Cc1ccc(S(=O)(=O)N(C)C[C@H]2Oc3ccc(NC(=O)Nc4ccc(F)cc4)cc3CC(=O)N([C@@H](C)CO)C[C@H]2C)cc1	-36.9
Cc1ccccc1-c1ccc([C@H]2[C@H]3CN(C(=O)NC4CCCC4)CCCCN3[C@H]2CO)cc1	-43.69
COc1ccc(NC(=O)Nc2ccc3c(c2)CC(=O)N([C@H](C)CO)C[C@@H](C)[C@H](CN(C)CC2CCCCC2)O3)cc1	-47.39
C[C@H](CO)N1C[C@H](C)[C@@H](CN(C)Cc2ccc3c(c2)OCO3)Oc2cc(C#CCN(C)C)ccc2S1(=O)=O	-28.8
Cc1noc(C)c1S(=O)(=O)N(C)C[C@@H]1OCCCC[C@@H](C)Oc2ccc(NS(=O)(=O)c3ccc(Cl)cc3)cc2C(=O)N([C@@H](C)CO)C[C@H]1C	-45.19
C[C@@H]1CCCCO[C@H](CN(C)C(=O)C2CCCCC2)[C@H](C)CN([C@H](C)CO)C(=O)c2cc(NC(=O)c3ccccc3)ccc2O1	-60.48
C[C@H]1CN([C@@H](C)CO)C(=O)c2c(c3ccccc3n2C)-c2ccccc2CO[C@H]1CN(C)C(=O)NC1CCCCC1	-39.09
C[C@@H]1CN([C@@H](C)CO)C(=O)Cc2cc(NC(=O)CCN3CCOCC3)ccc2O[C@H]1CN(C)Cc1ccc(-c2ccccc2)cc1	-38.3
COc1ccc2c3c(n(C)c2c1)[C@@H](CO)N(C(=O)Nc1cccc(F)c1)CC31CN(Cc2nccs2)C1	-30.56
C/C=C/c1ccc([C@H]2[C@@H](CO)N3CCCCN(C(=O)Nc4ccc(OC)cc4)C[C@H]23)cc1	-36.06
C[C@H](O)C#Cc1cnc2c(c1)C(=O)N([C@H](C)CO)C[C@H](C)[C@@H](CN(C)Cc1ccc(-c3ccccc3)cc1)O2	-68.57
C[C@@H]1CN([C@H](C)CO)C(=O)c2cc(NS(=O)(=O)c3ccc(Cl)cc3)ccc2O[C@H]1CN(C)Cc1ccc(Oc2ccccc2)cc1	-28.11
Cc1ccccc1S(=O)(=O)N1C[C@H](O)COC[C@H]2O[C@@H](CC(=O)N3CCC(Cc4ccccc4)CC3)CC[C@@H]21	-36.24
COc1ccccc1C#Cc1cnc2c(c1)C(=O)N([C@@H](C)CO)C[C@H](C)[C@H](CN(C)C(=O)c1ccc3c(c1)OCO3)O2	-38.12
COc1cccc(NC(=O)N(C)C[C@@H]2Oc3cc(C#Cc4ccncc4)ccc3S(=O)(=O)N([C@@H](C)CO)C[C@@H]2C)c1	-37.36
Cc1ccc(S(=O)(=O)N(C)C[C@H]2OCCCC[C@@H](C)Oc3ccc(N(C)C)cc3C(=O)N([C@H](C)CO)C[C@H]2C)cc1	-29.03
C[C@@H]1CN([C@H](C)CO)C(=O)Cc2cc(NC(=O)Nc3ccc(C(F)(F)F)cc3)ccc2O[C@@H]1CN(C)C(=O)Nc1ccc(C(F)(F)F)cc1	-15.24
C[C@H](CO)N1C[C@H](C)[C@@H](CN(C)S(=O)(=O)c2ccccc2)OCCCC[C@H](C)Oc2ccc(NS(=O)(=O)c3ccccc3)cc2C1=O	-44.49
O=C(Nc1ccc(C(F)(F)F)cc1)Nc1ccc2c(c1)[C@@H]1C[C@@H](CC(=O)N3CCc4ccccc4C3)O[C@H](CO)[C@@H]1O2	-27.49
C[C@@H]1CN([C@H](C)CO)C(=O)c2cc(NS(=O)(=O)c3ccc(F)cc3)ccc2O[C@@H](C)CCCCO[C@H]1CN(C)Cc1ccc(Cl)c(Cl)c1	-65.74
C[C@@H]1CN([C@@H](C)CO)C(=O)c2cc(NC(=O)Cc3cn(C)c4ccccc34)ccc2O[C@@H]1CN(C)Cc1ccc(Cl)c(Cl)c1	-29.9
C[C@@H]1CN([C@H](C)CO)C(=O)c2cc(NS(=O)(=O)c3ccccc3)ccc2O[C@@H](C)CCCCO[C@H]1CN(C)Cc1ccc2c(c1)OCO2	-35.42
Cc1ccc(S(=O)(=O)N(C)C[C@@H]2Oc3c(NS(=O)(=O)c4ccc(Cl)cc4)cccc3C(=O)N([C@H](C)CO)C[C@@H]2C)cc1	-46.77
O=C(Nc1ccccc1)NC1(c2cn(CC(=O)N3CCN(c4ccccc4)CC3)nn2)CCCCC1	-35.2
CC(C)NC(=O)Nc1ccc2c(c1)CC(=O)N([C@H](C)CO)C[C@H](C)[C@@H](CN(C)Cc1ccc(-c3ccccc3)cc1)O2	-39.12
C[C@@H]1CCCCO[C@H](CN(C)Cc2ccc3c(c2)OCO3)[C@H](C)CN([C@@H](C)CO)C(=O)c2cc(NC(=O)Nc3ccc(C(F)(F)F)cc3)ccc2O1	-20.51
CN1c2ccc(-c3cccc(F)c3)cc2[C@H]2[C@H](CCN2C(=O)c2ccccc2F)[C@H]1CO	-53.15

Repeated from the top, 7 entries:

compound,activity change (Venus) (%)
C[C@H]1CN([C@@H](C)CO)C(=O)c2cccc(NC(=O)Nc3ccccc3)c2O[C@H]1CN(C)Cc1ccc(C(F)(F)F)cc1,-30.36
Cc1ccc(S(=O)(=O)N(C)C[C@@H]2Oc3c(NC(=O)Nc4ccc(F)cc4)cccc3C(=O)N([C@H](C)CO)C[C@@H]2C)cc1,-58.93
C[C@@H]1CN([C@@H](C)CO)C(=O)Cc2cc(NC(=O)CCN3CCOCC3)ccc2O[C@@H]1CN(C)Cc1ccc(-c2ccccc2)cc1,-48.92
COc1cccc(-c2ccc(C3[C@@H]4CN(S(=O)(=O)c5ccccc5)C[C@H]3N4)cc2)c1 (some centres not stated),-50.82
CCCC#Cc1ccc2c(c1)O[C@H](CN(C)C(=O)C1CCC1)[C@H](C)CN([C@@H](C)CO)S2(=O)=O,-35.37
C[C@@H]1CCCCO[C@@H](CN(C)C(=O)C2CCCCC2)[C@H](C)CN([C@H](C)CO)C(=O)c2cc(NC(=O)NC3CCCCC3)ccc2O1,-44.03
COc1ccc2c3c(n(C)c2c1)[C@H](CO)N(Cc1ccccc1F)CC31CCN(CC2CC2)CC1,-34.78